According to article PMC10598736, “Structural insights into Rad18 targeting by the SLF1 BRCT domains” (The Journal of Biological Chemistry, 2023):
No constants are given. Whether binding was seen depends on the method and setting. Blank lines part the entries; values can stand above or below the molecule they belong to.

By UniProt entry, the sequences of proteins in these tests, tags left out. Where a name states a change or a piece, a line headed by the entry shows the natural chain unless it says otherwise.
UniProt Q9NS91: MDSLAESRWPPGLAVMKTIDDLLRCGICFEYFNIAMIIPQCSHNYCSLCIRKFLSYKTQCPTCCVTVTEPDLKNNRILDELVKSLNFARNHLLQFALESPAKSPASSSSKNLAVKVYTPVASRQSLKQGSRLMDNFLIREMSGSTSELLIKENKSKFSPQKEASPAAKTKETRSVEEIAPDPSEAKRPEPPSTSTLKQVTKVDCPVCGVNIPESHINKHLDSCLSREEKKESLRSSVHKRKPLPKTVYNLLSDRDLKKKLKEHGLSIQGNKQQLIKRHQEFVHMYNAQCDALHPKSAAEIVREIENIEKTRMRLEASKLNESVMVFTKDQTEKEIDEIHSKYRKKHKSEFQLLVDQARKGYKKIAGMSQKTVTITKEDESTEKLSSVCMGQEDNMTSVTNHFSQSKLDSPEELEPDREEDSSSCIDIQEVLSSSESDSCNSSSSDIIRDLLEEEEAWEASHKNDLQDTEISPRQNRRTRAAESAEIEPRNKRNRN

Legend:
[1] = biological target: T1, SLF1 tandem BRCT repeat (SLF1^tBRCT), residues 1-199, wild type (UniProt Q9BQI6); assay: condition: 1.3 mM peptide injected into 0.1 mM SLF1^tBRCT; ITC; MicroCal ITC 200, 25 °C, 20 mM Tris (pH 7.5), 200 mM sodium chloride; 1.3 mM Rad18 peptide or 6 mM BRCTide injected into 0.1 mM (Rad18 peptides) or 0.2 mM (BRCTide) SLF1^tBRCT in the cell; three independent repeats; both purified
T1 sequence: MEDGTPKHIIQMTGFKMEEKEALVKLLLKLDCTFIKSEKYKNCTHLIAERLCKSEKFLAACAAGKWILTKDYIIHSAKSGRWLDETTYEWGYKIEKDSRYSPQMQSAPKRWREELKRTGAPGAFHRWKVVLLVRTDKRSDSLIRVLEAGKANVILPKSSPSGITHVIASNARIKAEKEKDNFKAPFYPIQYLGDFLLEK

[2] = biological target: full-length Rad18 S444E, strep-his-sumo-tagged (human) (UniProt Q9NS91); assay: pull-down; his-strep-sumo-tagged Rad18 (50 μg) held on streptactin beads, incubated with 50 μg SLF1^tBRCT at 4 °C for 60 min; 20 mM Tris (pH 7.5), 200 mM sodium chloride, 2 mM DTT; eluted with D-desthiobiotin, SDS PAGE; both purified
[3] = biological target: full-length Rad18, wild type, strep-his-sumo-tagged (human) (UniProt Q9NS91); assay: as above

binding [1]: no binding
Molecule: Rad18-pS442-2IA peptide (I446A/I447A) (from UniProt Q9NS91 436-452)

binding [1]: no binding
Molecule: Rad18-pS442-4A peptide (I446A/I447A/L450A/L451A) (from UniProt Q9NS91 436-452)

B1: SLF1 tandem BRCT repeat (SLF1^tBRCT), residues 1-199, wild type (domain or fragment, UniProt Q9BQI6 1-199, looked up)
chain: T1 sequence
notes: SMC5/6 localization factor 1 (SLF1), tandem BRCT repeat at the N-terminus, residues 1-199; coding region optimized for E. coli and synthesized; also called WT; SMC5/6 localization factor 1 tBRCT; source: E. coli BL21 Rosetta (DE3), purified (Ni-NTA, heparin, gel filtration)
binding [2]: no binding (tested: 50 μg SLF1^tBRCT on 50 μg Rad18)
binding [3]: no binding (tested: 50 μg SLF1^tBRCT on 50 μg Rad18)
